Assay results from the supplement of paper PMC10338343.
± gives the standard deviation. Some of the results follow. The uncertainty is large for many entries.

tested on: EfPiwi piRISC loaded with L1MC piRNA (26 nt); assay: pre-steady-state target cleavage rate (min^-1); guide: L1MC piRNA 5'p-UAACUAAAUACUAUGCAAGCUGUAGG; MIWI and MILI are mouse PIWI proteins and EfPiwi is from a freshwater sponge; tags in brackets are library labels; higher = faster piRNA-guided slicing of the target; details: auxiliary factor: 500 nM Ephydatia muelleri Gtsf1
How it was run: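 Sequencing of uncleaved targets, normalised to depth and to weakly complementary targets, was the readout of this Cleave-'n-Seq assay. A transcribed, DNA-blocked target RNA library (0.1 nM) was mixed with 1 nM active affinity-purified piRISC carrying one synthetic guide, with or without 500 nM GTSF1 partner protein, in HEPES–potassium acetate buffer at 33 °C for 0–8 or 0–960 min. Three trials were pooled, k3 was capped at 0.0001 min^-1, and a burst-and-steady-state fit gave the pre-steady-state cleavage rate.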

Q: How did the “pre-steady-state target cleavage rate” value turn out when UCCUGGAACAGCAUGCAUAGUAUUUAGUUA was run?
A: 0.0466 ± 0.011

Q: With UCCUCCUACAGCUUGCAUAGUAUUUAGAUA as the sequence, how does the “pre-steady-state target cleavage rate” value read?
A: 0.00505 ± 0.0025

Q: UCCUGCAUCAGCUUGCAUAGUAUUUAGUAA was tested. Which “pre-steady-state target cleavage rate” value did it give?
A: 0.00847 ± 0.0021

Q: Which “pre-steady-state target cleavage rate” value does the source give for UCCUCCUAGAGCUUGCAUAGUAUUUAGUAA here?
A: 0.00608 ± 0.0021

Q: Which “pre-steady-state target cleavage rate” value does the source give for UCCUGGAUCACCUUGCUUAGUAUUUAGUUA here?
A: 0.00278 ± 0.0034

Q: With UCCUGGAUCAGCUUGCUUAGUAUUAAGUUA as the sequence, how does the “pre-steady-state target cleavage rate” value read?
A: 0.00376 ± 0.0025

Q: For UCCUGGAUCAGCUUGCAAGUAUUUAGUUA, which “pre-steady-state target cleavage rate” value is on record?
A: 0.00101 ± 0.0037

Q: UCCUGGAUGUCGAACGUAUCUAUUUUGUAA was tested. Which “pre-steady-state target cleavage rate” value did it give?
A: 0.000117 ± 0.021

Q: With UCCUGGAUCAGCUUGCUUAGUAUUUACUUA as the sequence, how does the “pre-steady-state target cleavage rate” value read?
A: 0.00128 ± 0.0039

Q: UCCUCCAACAGCUUGCAAAGUAUUUAGUUA was tested. Which “pre-steady-state target cleavage rate” value did it give?
A: 0.0132 ± 0.0038

Q: UCCUGCUACAGCUUGCAUUGUAUUUAGUUA was tested. Which “pre-steady-state target cleavage rate” value did it give?
A: 0.00662 ± 0.0024

Q: UCCUGGAUGUCGAACGUAAGUAUUAUAGUUA was tested. Which “pre-steady-state target cleavage rate” value did it give?
A: 0.000133 ± 0.043

Q: For UCCUGGAUCAGCCUGCAUAGUAUUUAGUUA, which “pre-steady-state target cleavage rate” value is on record?
A: 0.0209 ± 0.006

Q: UCCUCCUUCAGGUUGCAUAGUAUUUAGUUA was tested. Which “pre-steady-state target cleavage rate” value did it give?
A: 0.0528 ± 0.012

Q: With UCCUGGAUCAGCAAGCAUAGUAUUUAGUUA as the sequence, how does the “pre-steady-state target cleavage rate” value read?
A: 0.0107 ± 0.0038

Q: UCCUGGUACAGCUUGCAUAGUAUAAAGUUA was tested. Which “pre-steady-state target cleavage rate” value did it give?
A: 0.00482 ± 0.0022

Q: With UCCUCCUACAGGAUGCAUAGUAUUUAGUUA as the sequence, how does the “pre-steady-state target cleavage rate” value read?
A: 0.0467 ± 0.011

Q: How did the “pre-steady-state target cleavage rate” value turn out when UCCUGGAUCAGCUUGCUUAGAAUUUAGUUA was run?
A: 0.000695 ± 0.0044

Q: With UCCUGGAUCGAGCUUGCAUAGUAUUUAGUUA as the sequence, how does the “pre-steady-state target cleavage rate” value read?
A: 0.0315 ± 0.0069

Q: For UCCUGGUAGAGCUUGCAUAGUAAUUAGUUA, which “pre-steady-state target cleavage rate” value is on record?
A: 0.00406 ± 0.0024

Q: UCCUGCUACAGCUUGCUAUGUAUUUAGUUA was tested. Which “pre-steady-state target cleavage rate” value did it give?
A: 0.00243 ± 0.0043

Q: How did the “pre-steady-state target cleavage rate” value turn out when UCCUCCUACAGCUUGCAUAUUAUUUAGUUA was run?
A: 0.0783 ± 0.025

Q: Which “pre-steady-state target cleavage rate” value does the source give for UCCUGGAUGUCGAACGUAAGUAUUUGGUUA here?
A: < 0.0001

Q: Which “pre-steady-state target cleavage rate” value does the source give for UCCUGGAACAGCUUGAUAGUAUUUAGUUA here?
A: 0.00225 ± 0.0042
